Experimental data taken from patent US20200102398A1.
No constants are given. Whether binding was seen depends on the method and setting. Some results given as binding are weak or reduced against the parent protein; the word gives no strength. Each block holds one binder with its values, some of them ahead of it.

Amino acid sequences for entries named in this document (tags omitted). A change or cut given only in a name is not applied to a line headed by its entry.
UniProt Q02223: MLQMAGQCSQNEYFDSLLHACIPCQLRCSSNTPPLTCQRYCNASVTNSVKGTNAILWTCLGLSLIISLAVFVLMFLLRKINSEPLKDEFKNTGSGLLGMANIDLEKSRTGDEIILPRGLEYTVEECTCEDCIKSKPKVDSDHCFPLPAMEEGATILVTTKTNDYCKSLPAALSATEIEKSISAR

Tests used:
[1] = target: soluble BCMA (sBCMA) (human) (UniProt Q02223); experiment: Octet sandwich assay: Ther-Ab2 on anti-huFc sensor, BCMA, then rabbit antibody
[2] = target: soluble BCMA (sBCMA) (human) (UniProt Q02223); experiment: Octet sandwich assay: capture antibody, +/- BCMA, Ther-Ab2, detection antibody
[3] = target: soluble BCMA (sBCMA) (human) (UniProt Q02223); experiment: Octet sandwich: anti-huFc sensor loaded with Ther-Ab2, then BCMA, baseline, then sBCMA-mAb1 as second antibody (Example 2a)
[4] = target: soluble BCMA (sBCMA) (human) (UniProt Q02223); experiment: Octet sandwich: sBCMA-mAb1 captured by B-goat anti-rabbit Fc on SA sensor, BCMA offered 1:1 with Ther-Ab2 or irrelevant bispecific (Example 2c)
[5] = target: soluble BCMA (sBCMA) (human) (UniProt Q02223); experiment: Biacore 3000 (SPR), mAb captured by goat anti-rabbit IgG Fc, sBCMA as analyte at 9.4-600 nM (Example 3); concentrations not labelled on the sheet
[6] = target: soluble BCMA (sBCMA) (human) (UniProt Q02223); experiment: Octet sandwich with purified recombinant antibodies: sBCMA-mAb1 captured by B-goat anti-rabbit Fc on SA sensor, irrelevant IgG block, +/- BCMA (Example 2c)
[7] = target: soluble BCMA (sBCMA) (human) (UniProt Q02223); experiment: Octet sandwich: anti-huFc sensor loaded with Ther-Ab2, then BCMA, baseline, then sBCMA-mAb2 (quantified supernatant) as second antibody (Example 2a)
[8] = target: soluble BCMA (sBCMA) (human) (UniProt Q02223); experiment: Octet sandwich assay (legend of FIG. 3)
[9] = target: soluble BCMA (sBCMA) (human) (UniProt Q02223); experiment: Octet sandwich assay: sBCMA-mAb1 captured, Ther-Ab2 +/- BCMA, then sBCMA-mAb3
[10] = target: soluble BCMA (sBCMA) (human) (UniProt Q02223); experiment: Octet sandwich: sBCMA-mAb3 on BCMA held by captured sBCMA-mAb1 and already carrying Ther-Ab2 (Example 2c)
[11] = target: soluble BCMA (sBCMA) (human) (UniProt Q02223); experiment: Octet sandwich: B-goat anti-rabbit Fc on SA sensor, sBCMA-mAb1 captured, irrelevant IgG block, Ther-Ab2 or irrelevant bispecific +/- BCMA, then sBCMA-mAb3 (Example 2c)

binding [1]: binds
binding [2]: binds
binding [3]: binds
binding [4]: binds
binding [5]: binds
binding [6]: binds
B1: sBCMA-mAb1 (antibody, V domains shown)
VH: QSLEESGGDLVKPGAFLTLTCTASGFSFSSGYYICWVRQAPGKGLEWIACIYTGSSGSTDYASWAKGRFTISKTSSTTVTLQMTSLTAADTATYFCARDYGHSYWNLWGPGTLVTVSS
VL: DIVMTQTPASVEAAVGGTVTIKCQASEDISSRLAWYQQKPGQPPKLLIGAASTLASGVSSRFKGSRSGTEYTLTISDLECADAATYYCLGDYYVSSYGNAFGGGTEVVVKG

binding [1]: binds
binding [5]: binds
binding [7]: binds
B2: sBCMA-mAb2 (antibody, V domains shown)
VH: QSLEESGGDLVKPGASLTLTCTASGFSFSSSYWICWVRQAPGKGLEWIACIYAGSGDFTYYASWAKGRFTVSKTSSTTVTLQMTSLTAADTATYFCARDAATSYYSHYFTLWGPGTLVTVSS
VL: DVVMTQTPASVSEPVGGTVTIKCQASQSIYSGLAWYQQKPGQPPKLLIYDASDLASGVPSRFSGSGYGTEFTLTISGVQCEDAATYYCQVTHYESGVPLGGGTEVVVEG

binding [8]: binds
binding [9]: binds
binding [2]: binds
binding [10]: binds
binding [5]: binds
binding [11]: binds
B3: sBCMA-mAb3 (antibody, V domains shown)
VH: QEQLEESGGGLVKPGGTLTLTCKASGMDFSSYYYMCWVRQAPGKGLEWIACIFSDSGGHTAYASWAEGRFTISKTSSTTVTLQMTSLTVADTATYFCARDRRDVVYIRDLWGPGTLVTVSS
VL: ALVMTQTPSPVSAAVGGTVTISCQSSESVYNNNALAWYQQKPGQPPKLLIYGASSLASGVPSRFKGSGSGTQFTLTISDLECDDAATYYCAGYKRYNNDGHAFGGGTEVVVKG
